Laboratory results from paper PMC10810452.
Like-named read-outs stand apart in the source and are kept apart here. These are yes or no findings as the source states them, for the method shown. Binding seen in cells or lysates may run through a third protein. Some results given as binding are weak or reduced against the parent protein; the word gives no strength. Sequences can lack the tags named with a protein.

Sequences of proteins named here, by UniProt entry; tags and fusion partners are left off.
UniProt Q93009: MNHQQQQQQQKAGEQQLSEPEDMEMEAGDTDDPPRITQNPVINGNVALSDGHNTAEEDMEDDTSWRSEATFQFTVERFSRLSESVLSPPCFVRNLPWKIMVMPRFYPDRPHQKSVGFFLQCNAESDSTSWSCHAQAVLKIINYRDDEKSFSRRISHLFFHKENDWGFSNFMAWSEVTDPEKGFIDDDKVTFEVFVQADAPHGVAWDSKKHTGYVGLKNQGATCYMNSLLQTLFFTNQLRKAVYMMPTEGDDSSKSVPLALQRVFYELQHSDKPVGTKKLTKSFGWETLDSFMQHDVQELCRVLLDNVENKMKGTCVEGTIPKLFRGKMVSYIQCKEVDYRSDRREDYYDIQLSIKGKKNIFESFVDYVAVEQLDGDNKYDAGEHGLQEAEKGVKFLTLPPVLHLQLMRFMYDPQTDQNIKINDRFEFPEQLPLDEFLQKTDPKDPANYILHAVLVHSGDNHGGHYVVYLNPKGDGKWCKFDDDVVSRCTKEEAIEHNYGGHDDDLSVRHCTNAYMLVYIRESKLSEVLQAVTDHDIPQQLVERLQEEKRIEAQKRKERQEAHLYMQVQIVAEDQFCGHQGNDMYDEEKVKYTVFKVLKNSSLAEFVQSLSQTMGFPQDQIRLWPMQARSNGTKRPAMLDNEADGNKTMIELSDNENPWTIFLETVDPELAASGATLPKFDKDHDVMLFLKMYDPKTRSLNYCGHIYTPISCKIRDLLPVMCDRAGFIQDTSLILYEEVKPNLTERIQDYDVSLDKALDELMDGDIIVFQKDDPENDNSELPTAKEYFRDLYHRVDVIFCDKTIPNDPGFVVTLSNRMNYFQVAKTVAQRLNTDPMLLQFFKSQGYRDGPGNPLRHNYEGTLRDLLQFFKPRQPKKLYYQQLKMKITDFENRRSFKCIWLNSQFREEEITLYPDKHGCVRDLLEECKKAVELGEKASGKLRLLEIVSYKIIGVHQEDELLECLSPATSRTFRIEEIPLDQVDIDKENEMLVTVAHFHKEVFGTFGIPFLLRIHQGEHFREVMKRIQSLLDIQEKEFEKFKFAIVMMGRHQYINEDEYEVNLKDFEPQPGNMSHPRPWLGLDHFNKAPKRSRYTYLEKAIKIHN

Tests used:
Assay in all cases: co-IP
FLAG-OTUD4 (1-425aa) [1] = biological target: T1, FLAG-OTUD4 (1-425aa) (UniProt Q01804)
T1 sequence: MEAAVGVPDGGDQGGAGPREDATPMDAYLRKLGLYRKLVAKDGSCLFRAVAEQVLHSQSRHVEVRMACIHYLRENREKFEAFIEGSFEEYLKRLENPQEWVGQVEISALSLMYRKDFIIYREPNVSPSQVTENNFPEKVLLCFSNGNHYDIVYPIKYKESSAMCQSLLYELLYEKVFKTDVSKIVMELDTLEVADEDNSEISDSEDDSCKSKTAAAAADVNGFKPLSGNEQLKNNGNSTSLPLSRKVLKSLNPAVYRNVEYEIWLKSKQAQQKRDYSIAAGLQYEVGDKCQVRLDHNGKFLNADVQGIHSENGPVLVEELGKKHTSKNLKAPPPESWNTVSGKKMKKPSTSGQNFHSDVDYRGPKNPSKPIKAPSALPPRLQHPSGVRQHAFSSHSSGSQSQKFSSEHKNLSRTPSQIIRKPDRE

[2] = biological target: T2, FLAG-OTUD4 (wild type, full length), Q01804; settings: remark: other sources report otherwise
T2 chain: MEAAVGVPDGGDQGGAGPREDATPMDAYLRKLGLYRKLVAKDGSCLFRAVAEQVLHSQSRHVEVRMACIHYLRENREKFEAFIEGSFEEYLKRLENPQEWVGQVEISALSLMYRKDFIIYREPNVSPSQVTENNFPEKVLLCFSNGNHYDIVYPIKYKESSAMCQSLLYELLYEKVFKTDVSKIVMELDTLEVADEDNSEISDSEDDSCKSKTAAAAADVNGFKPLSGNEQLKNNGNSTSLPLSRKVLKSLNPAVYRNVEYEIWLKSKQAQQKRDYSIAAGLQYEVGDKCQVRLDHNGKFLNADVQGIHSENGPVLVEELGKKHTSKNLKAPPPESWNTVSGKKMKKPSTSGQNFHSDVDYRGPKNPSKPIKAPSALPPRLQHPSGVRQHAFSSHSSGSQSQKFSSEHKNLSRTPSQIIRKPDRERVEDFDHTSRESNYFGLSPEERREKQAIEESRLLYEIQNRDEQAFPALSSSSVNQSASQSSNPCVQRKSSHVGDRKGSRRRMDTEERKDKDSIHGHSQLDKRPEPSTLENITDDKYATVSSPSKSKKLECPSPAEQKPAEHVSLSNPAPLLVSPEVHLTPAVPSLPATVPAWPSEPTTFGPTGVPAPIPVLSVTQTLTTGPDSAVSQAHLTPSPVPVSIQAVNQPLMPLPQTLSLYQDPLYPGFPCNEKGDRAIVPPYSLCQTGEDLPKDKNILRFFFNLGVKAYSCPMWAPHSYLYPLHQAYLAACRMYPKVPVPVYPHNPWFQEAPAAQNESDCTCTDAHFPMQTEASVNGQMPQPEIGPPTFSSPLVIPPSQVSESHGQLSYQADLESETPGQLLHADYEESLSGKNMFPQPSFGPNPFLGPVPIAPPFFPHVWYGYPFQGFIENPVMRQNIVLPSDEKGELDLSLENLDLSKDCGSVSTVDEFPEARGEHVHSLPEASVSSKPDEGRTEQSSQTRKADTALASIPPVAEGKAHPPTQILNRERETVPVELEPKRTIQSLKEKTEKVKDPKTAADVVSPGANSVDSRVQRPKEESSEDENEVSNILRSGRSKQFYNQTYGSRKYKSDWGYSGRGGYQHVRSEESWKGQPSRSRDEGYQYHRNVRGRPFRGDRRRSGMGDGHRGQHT

FLAG-OTUD4 (1-425aa) [3] = biological target: T1, FLAG-OTUD4 (1-425aa); remark: listed apart in the source

In the case of “HA-USP7 (from UniProt Q93009 1-1102) (enzyme)”, the binding (FLAG-OTUD4 (1-425aa) [1]) is reported as “binds”.

B1: FLAG-OTUD4 (wild type, full length), Q01804 1-1114 (enzyme)
chain: T2 chain
With B1 the binding [2] was “binds”.

B2: FLAG-OTUD4 (1-425aa) (domain or fragment, UniProt Q01804 1-425)
chain: T1 sequence
With B2 the binding (FLAG-OTUD4 (1-425aa) [3]) was “binds”.
